# Data reported in the supplement of paper PMC7666118.
# Protein sequences, listed by entry. Tags and fused reporters are not part of them. Lines headed by an entry give the natural chain unless they say otherwise; changes in a name come on top.
# UniProt Q7Z6Z7, whole entry: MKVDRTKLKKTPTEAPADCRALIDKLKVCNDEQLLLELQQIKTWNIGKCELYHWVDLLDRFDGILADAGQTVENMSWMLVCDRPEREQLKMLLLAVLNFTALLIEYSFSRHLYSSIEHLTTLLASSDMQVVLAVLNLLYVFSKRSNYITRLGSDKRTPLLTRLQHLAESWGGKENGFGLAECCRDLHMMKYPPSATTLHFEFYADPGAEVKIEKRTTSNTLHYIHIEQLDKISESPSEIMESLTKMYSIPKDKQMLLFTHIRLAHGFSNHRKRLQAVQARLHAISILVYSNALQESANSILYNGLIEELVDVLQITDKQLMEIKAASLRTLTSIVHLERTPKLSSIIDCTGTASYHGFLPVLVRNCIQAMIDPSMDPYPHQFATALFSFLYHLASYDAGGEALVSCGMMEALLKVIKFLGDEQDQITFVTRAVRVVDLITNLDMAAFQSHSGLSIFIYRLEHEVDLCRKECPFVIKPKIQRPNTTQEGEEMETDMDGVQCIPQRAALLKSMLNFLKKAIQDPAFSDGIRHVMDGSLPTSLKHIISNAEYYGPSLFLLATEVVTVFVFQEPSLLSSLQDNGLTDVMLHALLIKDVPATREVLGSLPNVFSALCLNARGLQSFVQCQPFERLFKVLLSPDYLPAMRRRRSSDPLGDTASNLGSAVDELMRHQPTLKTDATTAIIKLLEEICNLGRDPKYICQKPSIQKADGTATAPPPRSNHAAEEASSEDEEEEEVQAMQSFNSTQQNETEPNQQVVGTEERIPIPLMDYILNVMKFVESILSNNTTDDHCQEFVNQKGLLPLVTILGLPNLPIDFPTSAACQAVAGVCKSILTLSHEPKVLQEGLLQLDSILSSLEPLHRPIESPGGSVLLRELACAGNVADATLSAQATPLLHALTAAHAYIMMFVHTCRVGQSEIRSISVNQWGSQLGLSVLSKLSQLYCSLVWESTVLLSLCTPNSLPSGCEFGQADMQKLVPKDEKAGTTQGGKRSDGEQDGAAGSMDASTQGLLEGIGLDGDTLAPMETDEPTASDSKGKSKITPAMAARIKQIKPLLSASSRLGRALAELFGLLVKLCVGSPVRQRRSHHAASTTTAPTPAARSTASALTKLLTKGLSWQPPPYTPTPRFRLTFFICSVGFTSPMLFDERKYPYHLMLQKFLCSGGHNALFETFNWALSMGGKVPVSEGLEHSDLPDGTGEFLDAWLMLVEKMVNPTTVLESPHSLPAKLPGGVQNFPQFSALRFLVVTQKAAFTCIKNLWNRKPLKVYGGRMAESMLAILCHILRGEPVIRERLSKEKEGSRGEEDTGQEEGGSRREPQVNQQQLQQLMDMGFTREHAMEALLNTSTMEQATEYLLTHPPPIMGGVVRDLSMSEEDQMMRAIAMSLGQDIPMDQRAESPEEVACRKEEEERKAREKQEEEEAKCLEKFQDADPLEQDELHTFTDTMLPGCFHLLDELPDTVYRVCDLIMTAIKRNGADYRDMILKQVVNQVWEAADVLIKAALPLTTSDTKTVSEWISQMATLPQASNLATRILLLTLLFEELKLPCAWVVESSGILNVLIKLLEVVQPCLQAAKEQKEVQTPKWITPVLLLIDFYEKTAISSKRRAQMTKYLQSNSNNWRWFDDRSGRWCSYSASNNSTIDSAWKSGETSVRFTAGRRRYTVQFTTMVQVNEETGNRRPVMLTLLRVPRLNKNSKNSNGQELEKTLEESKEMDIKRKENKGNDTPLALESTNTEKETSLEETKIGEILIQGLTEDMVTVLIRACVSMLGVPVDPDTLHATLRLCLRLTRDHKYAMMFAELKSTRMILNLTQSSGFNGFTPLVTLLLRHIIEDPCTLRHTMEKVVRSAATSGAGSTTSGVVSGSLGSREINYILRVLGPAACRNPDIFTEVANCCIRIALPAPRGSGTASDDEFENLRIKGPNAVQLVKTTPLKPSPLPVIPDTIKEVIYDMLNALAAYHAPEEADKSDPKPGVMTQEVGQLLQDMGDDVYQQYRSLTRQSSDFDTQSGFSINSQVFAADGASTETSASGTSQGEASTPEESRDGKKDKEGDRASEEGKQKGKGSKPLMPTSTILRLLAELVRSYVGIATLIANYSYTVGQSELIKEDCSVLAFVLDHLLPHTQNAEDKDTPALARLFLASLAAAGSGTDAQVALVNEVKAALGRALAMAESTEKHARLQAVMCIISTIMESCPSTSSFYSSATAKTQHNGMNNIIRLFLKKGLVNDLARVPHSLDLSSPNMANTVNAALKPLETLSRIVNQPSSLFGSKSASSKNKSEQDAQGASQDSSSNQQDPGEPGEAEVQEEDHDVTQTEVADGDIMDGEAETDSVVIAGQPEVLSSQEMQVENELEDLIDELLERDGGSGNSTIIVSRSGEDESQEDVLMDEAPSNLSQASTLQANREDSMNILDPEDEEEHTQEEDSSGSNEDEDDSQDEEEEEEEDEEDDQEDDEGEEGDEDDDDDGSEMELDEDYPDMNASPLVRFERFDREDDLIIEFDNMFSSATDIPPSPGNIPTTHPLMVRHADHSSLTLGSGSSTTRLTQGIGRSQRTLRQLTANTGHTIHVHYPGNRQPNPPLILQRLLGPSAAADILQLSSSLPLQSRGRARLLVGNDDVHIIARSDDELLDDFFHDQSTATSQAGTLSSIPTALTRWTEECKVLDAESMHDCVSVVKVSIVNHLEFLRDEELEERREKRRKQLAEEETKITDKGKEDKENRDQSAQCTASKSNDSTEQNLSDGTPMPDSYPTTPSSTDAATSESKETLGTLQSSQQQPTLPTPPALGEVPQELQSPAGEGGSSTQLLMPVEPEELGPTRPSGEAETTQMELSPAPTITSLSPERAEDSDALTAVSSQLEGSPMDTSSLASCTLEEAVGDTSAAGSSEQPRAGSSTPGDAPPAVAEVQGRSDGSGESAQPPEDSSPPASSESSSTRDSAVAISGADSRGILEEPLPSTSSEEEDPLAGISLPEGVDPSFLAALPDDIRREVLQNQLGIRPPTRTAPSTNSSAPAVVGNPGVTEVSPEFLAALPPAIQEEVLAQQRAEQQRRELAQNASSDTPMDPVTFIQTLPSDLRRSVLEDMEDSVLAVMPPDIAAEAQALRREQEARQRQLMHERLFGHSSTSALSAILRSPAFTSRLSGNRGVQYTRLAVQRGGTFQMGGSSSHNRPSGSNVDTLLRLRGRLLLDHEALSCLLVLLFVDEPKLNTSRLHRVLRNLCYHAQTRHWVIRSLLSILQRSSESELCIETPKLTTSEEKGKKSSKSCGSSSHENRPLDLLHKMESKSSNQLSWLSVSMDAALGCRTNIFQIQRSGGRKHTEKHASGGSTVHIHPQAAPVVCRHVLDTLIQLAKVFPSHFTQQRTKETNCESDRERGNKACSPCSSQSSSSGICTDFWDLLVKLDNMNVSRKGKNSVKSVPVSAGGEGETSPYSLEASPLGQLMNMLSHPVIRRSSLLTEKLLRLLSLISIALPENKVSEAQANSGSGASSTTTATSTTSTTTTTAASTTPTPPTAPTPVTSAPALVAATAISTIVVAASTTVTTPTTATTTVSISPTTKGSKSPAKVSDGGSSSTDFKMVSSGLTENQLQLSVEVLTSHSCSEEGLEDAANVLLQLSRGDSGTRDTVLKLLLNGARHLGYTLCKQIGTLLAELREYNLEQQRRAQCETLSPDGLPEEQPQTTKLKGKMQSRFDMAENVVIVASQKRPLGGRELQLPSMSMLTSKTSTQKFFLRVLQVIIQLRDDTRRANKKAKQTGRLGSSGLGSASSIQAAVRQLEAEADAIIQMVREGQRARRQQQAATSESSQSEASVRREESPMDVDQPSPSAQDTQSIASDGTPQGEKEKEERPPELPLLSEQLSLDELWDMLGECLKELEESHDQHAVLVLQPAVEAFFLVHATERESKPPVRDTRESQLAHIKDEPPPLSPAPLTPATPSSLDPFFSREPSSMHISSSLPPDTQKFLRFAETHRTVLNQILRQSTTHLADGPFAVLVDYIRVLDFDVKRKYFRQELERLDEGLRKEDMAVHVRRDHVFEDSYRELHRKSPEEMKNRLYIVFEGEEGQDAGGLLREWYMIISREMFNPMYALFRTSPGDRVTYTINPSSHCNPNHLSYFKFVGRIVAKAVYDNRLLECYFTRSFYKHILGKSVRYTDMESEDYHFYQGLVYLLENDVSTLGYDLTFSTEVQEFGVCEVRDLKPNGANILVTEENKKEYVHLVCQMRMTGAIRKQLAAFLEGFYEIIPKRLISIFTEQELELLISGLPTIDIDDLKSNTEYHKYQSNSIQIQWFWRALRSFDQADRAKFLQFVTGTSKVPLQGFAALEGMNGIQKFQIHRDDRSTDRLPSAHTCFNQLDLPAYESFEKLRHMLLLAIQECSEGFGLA
# UniProt P80217: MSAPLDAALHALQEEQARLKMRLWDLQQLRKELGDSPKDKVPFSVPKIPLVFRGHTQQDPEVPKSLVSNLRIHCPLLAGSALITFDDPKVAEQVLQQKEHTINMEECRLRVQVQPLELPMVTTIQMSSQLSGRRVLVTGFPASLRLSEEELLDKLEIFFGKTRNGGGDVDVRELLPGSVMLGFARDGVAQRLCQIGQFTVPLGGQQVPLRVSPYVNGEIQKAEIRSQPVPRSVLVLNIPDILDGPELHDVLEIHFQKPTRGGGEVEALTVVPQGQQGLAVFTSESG
# UniProt Q86YS7: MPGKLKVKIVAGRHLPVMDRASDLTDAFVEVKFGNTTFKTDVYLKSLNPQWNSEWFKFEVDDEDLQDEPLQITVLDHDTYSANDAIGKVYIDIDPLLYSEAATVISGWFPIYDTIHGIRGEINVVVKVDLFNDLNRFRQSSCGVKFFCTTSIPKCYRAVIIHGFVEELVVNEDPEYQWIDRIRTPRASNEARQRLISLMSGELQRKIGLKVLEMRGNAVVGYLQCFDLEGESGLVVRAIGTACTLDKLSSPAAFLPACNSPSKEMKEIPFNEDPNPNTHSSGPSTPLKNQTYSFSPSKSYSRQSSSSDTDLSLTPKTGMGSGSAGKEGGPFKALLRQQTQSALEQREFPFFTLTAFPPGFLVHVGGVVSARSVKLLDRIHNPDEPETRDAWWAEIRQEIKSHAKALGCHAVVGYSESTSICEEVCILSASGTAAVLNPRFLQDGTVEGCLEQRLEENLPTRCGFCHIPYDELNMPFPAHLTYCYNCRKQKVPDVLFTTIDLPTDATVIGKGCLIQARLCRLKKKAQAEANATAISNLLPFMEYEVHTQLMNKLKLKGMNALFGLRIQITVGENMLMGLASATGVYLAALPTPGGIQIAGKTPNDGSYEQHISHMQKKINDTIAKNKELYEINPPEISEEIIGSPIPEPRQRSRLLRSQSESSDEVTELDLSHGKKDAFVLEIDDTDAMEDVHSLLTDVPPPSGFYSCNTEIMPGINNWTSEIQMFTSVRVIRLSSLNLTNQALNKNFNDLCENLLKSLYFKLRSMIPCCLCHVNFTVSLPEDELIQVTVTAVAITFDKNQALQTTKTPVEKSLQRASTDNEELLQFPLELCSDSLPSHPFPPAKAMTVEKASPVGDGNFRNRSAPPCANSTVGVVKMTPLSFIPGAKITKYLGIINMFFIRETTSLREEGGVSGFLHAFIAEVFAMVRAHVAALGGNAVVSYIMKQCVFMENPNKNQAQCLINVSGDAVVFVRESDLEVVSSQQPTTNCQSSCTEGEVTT
# UniProt P18065: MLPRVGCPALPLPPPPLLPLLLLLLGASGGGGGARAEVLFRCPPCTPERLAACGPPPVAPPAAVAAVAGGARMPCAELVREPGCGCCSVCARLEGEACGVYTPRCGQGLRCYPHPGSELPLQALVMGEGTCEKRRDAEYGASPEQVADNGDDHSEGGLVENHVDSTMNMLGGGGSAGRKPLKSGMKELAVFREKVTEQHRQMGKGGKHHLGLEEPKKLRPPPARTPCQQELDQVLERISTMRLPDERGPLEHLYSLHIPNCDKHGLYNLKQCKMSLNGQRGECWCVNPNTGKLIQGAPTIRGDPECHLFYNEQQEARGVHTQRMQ
# UniProt Q9Y6K9, whole entry: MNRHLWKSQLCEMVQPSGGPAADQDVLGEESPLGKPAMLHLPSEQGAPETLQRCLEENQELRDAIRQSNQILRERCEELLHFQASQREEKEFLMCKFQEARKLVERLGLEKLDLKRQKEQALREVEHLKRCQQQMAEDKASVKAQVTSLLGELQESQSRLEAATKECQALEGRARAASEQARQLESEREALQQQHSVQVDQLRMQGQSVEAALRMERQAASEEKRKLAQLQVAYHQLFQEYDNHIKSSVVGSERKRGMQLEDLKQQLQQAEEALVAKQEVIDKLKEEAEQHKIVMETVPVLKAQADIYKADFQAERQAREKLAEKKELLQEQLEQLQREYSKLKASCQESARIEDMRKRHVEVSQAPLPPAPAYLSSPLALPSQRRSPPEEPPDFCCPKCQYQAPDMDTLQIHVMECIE
# UniProt P61604, whole entry: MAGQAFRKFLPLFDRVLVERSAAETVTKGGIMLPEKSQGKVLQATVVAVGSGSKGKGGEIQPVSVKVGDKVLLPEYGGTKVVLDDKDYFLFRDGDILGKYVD
# Some of the results follow.
# Compound: COc1ccc(Cn2ccc3ccc(C(=O)NO)cc32)cc1
# Test: dose-dependent thermal stabilisation call (2D-TPP, DLPTP, 10% FDR) (binary (1 = stabilised)); higher = stabilised by the compound
# Settings: system: HL-60 intact cells; concentration range 0.04-10 µM
row,Target,dose-dependent thermal stabilisation call
1,ILF3 (UniProt Q12906),active: 1
2,HS1BP3 (UniProt Q53T59),inactive: 0
3,ICAM3 (UniProt P32942),inactive: 0
4,KIAA0467 (UniProt Q5T011),inactive: 0
5,IDH3B (UniProt O43837),inactive: 0
6,IRF3 (UniProt Q14653),inactive: 0
7,ICA1 (UniProt Q05084),inactive: 0
8,HUWE1 (UniProt Q7Z6Z7),inactive: 0
9,IFI35 (UniProt P80217),inactive: 0
10,HS2ST1 (UniProt Q7LGA3),inactive: 0
11,HTATIP2 (UniProt Q9BUP3),inactive: 0
12,KIAA0528 (UniProt Q86YS7),inactive: 0
13,KHDRBS1 (UniProt Q07666),inactive: 0
14,KIAA0101 (UniProt Q15004),inactive: 0
15,IRS2 (UniProt Q9Y4H2),inactive: 0
16,IMPA2 (UniProt O14732),inactive: 0
17,ICMT (UniProt O60725),inactive: 0
18,IGFBP2 (UniProt P18065),inactive: 0
19,ILF2 (UniProt Q12905),inactive: 0

row,Target,dose-dependent thermal stabilisation call
1,KIAA0368 (UniProt Q5VYK3),inactive: 0
2,ILKAP (UniProt Q9H0C8),inactive: 0
3,ISCA2 (UniProt Q86U28),inactive: 0
4,KCTD9 (UniProt Q7L273),inactive: 0
5,HNRNPA2B1 (UniProt P22626),inactive: 0
6,IPO7 (UniProt O95373),inactive: 0
7,HPDL (UniProt Q96IR7),inactive: 0
8,IKBKG (UniProt Q9Y6K9),inactive: 0
9,IARS2 (UniProt Q9NSE4),inactive: 0
10,HSPE1 (UniProt P61604),inactive: 0
11,IDH3G (UniProt P51553),inactive: 0
12,IDE (UniProt P14735),inactive: 0
13,KDELR1 (UniProt P24390),inactive: 0
14,IQWD1 (UniProt Q58WW2),inactive: 0
15,IBTK (UniProt Q9P2D0),inactive: 0
16,HNRNPAB (UniProt Q99729),inactive: 0
17,IRAK1 (UniProt P51617),inactive: 0
18,HNRNPD (UniProt Q14103),inactive: 0
19,IMPAD1 (UniProt Q9NX62),inactive: 0

# A few values from the entries so far.
# Entry of IKBKG (UniProt Q9Y6K9) under dose-dependent thermal stabilisation call: inactive: 0
# Entry of IDH3G (UniProt P51553) under dose-dependent thermal stabilisation call: inactive: 0
